No constants are given. Whether binding was seen depends on the method and setting. Binding seen in cells or lysates may run through a third protein. A yes stands for co-enrichment or nearness to the bait. Other partners may have been found.
Molecular target: Notch1 (human (endogenous in hdBECs)) (UniProt P46531)
Test: affinity purification with mass spectrometry; immunoprecipitation of endogenous Notch1 with an anti-Notch1 ICD antibody and Protein A/G beads from hdBEC lysates (static or flow); IP lysis buffer pH 7.4, 25 mM Tris, 150 mM NaCl, 5 mM MgCl2, 1% Triton X-100; SDS-PAGE, Coomassie staining, excised bands analysed by LC-MS/MS

By UniProt entry, the sequences of proteins in these tests, tags left out. Residues count along the entry.
UniProt P46531, residues 19-2555: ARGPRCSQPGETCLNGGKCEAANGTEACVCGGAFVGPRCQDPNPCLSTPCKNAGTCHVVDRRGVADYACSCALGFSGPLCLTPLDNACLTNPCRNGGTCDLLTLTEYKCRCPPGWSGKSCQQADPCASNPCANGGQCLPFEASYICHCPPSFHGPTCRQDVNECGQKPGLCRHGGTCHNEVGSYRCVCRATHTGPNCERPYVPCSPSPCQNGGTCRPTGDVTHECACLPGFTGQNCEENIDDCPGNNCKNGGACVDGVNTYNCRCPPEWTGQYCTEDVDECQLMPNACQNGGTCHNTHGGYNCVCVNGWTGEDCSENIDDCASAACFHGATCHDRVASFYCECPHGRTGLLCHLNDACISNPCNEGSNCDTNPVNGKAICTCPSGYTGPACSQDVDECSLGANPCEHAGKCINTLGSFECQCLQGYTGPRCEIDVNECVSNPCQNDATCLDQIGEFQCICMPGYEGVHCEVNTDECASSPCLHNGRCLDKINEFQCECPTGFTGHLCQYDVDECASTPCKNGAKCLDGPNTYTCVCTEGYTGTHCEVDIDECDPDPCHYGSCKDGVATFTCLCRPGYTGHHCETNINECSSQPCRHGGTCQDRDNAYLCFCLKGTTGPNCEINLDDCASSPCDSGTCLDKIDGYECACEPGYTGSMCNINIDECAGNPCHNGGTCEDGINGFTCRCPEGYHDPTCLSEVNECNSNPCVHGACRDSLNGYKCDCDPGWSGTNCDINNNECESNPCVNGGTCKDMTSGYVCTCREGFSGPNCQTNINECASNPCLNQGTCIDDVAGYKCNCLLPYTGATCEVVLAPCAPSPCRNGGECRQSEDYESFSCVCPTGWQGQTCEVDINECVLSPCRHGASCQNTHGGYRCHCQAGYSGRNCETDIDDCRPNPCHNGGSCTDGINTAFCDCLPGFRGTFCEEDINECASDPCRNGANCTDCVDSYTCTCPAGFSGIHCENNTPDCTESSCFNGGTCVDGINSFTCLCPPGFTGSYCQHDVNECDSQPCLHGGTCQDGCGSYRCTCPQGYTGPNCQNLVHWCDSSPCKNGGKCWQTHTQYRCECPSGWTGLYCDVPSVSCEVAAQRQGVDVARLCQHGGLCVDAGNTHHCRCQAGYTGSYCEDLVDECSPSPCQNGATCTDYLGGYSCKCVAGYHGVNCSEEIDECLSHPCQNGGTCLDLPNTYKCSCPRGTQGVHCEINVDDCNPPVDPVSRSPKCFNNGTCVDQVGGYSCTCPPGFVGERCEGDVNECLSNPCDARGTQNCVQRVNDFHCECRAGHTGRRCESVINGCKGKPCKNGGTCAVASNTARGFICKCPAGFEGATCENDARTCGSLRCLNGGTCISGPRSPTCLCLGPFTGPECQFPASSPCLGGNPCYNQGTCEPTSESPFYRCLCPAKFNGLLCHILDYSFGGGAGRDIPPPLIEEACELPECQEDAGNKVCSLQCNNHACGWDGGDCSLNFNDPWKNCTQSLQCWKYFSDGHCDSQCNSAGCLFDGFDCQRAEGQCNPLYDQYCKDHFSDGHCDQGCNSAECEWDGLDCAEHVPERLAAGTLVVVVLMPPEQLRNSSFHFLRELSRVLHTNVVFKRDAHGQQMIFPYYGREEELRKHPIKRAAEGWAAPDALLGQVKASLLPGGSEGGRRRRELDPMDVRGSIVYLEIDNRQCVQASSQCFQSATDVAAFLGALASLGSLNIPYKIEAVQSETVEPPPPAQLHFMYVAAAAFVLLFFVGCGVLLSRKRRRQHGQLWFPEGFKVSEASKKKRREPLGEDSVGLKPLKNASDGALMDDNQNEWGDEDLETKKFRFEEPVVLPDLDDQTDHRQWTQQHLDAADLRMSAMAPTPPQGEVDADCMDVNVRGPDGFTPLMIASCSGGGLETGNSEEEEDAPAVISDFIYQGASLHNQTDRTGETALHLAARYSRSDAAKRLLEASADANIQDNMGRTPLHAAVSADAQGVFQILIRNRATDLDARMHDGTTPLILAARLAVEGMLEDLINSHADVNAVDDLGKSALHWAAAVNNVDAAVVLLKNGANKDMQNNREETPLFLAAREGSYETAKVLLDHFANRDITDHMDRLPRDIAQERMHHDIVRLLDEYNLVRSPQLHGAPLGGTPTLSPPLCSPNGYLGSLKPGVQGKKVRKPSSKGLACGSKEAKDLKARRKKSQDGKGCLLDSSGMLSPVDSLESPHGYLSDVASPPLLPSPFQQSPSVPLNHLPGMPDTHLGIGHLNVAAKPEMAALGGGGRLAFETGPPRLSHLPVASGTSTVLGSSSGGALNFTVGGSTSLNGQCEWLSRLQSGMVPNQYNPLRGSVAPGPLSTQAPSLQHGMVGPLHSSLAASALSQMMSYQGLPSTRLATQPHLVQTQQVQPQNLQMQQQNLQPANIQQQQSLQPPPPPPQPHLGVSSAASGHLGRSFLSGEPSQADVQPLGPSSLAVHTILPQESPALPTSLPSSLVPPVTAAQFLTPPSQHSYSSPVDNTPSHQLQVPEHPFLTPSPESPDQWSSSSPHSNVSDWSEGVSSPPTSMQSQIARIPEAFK
UniProt P07355: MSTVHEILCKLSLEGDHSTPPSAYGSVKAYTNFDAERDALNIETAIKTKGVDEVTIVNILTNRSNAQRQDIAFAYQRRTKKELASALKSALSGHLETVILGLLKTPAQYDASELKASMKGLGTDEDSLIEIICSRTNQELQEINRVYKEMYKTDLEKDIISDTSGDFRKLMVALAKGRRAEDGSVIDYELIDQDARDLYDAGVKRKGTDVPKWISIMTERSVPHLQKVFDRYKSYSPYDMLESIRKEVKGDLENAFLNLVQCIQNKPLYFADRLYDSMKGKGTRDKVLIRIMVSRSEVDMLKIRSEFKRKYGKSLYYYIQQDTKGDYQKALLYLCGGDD

annexin A2 (from UniProt P07355 1-339) was tested, and the binding was “binds”.
